Results are given in words; binding and its absence hold for the method and conditions named. A result given as binding can be weak or reduced; the word gives no strength.
Experiments:
[1] = molecular target: erylysin A (EryA) (P. eryngii) (UniProt D0FZZ2); assay: SPR; large unilamellar vesicles of CPE/POPC/cholesterol (5/47.5/47.5) immobilised on a Biacore L1 chip to ~7000 RU; aegerolysin (0.25 uM OlyA6 or PlyA2, 5 uM EryA) injected alone or together with PlyB (molar ratio 12.5/1), 10 uL/min, 25 °C, 20 mM Tris, 140 mM NaCl, 5 uM EDTA, pH 7.4; the two proteins meet on the lipid membrane; both purified
[2] = molecular target: pleurotolysin A2 (PlyA2) (P. eryngii); assay: as above

B1: Δ48PlyB (pleurotolysin B) (domain or fragment, UniProt Q5W9E8 49-523)
chain: SQAGDTLNDVIQDPTRRNKLINDNNLLKGIIMGRDGPVPSSRELIVRPDTLRAIINNRATIETTTMEAEFTETLMESNYNSASVKVSAPFITANSEYSESSSFKNTETEKSMYTSSRYLFPQGRIDFTTPDSGFDDVIKLSPQFTSGVQAALAKATGTEKREALQNLFQEYGHVFRTKVHIGGVLSAHTMETFSRSENETEVKQDVKAGLEGAVKGWGGGATAGHGNTQGTITTSQNRKLNVKYIVNGGDYTKIQNTEEWVASTNQSEHWRVIEVTEVTAVADLLPQPIRGQVKDLLKPLLGKWVDVEKVPGLESLPVSVYRPKGAIPAGWFWLGDTADASKALLVKPTLPARSGRNPALTSLHQGSGMTEQPFVDLPQYQYLSTYFGSFAHDTPPGSTLRGLRPDHVLPGRYEMHGDTISTAVYVTRPVDVPFPEDECFDLKSLVRVKLPGSGNPPKPRSALKKSMVLFDSGEK
- binding [1]: binds
- binding [2]: binds

— PMC6433908
